Reference: PubChem BioAssay AID686943 (Drosophila RNAi Screening Center, 2013)
The deposit covers about 23,000 reagents; shown is a random part of those that have a named target and a result. 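Extra replicates exist only for a retested subset of genes; insulin dose and duration not given; both raised and lowered dpERK matter.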 The numbers tell different reagents against one gene apart. A plus sign joins genes that one reagent is predicted to hit. Not given: the amount of reagent, the time to read-out.

Assay: 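Search across the genome for regulators of signalling from receptor tyrosine kinase to ERK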 (primary screen)
Cell system: Drosophila S2R+ haemocyte-like cells expressing YFP-tagged ERK (Rolled)
Knock-down reagent: long dsRNA against Drosophila genes
Challenge: insulin stimulation versus unstimulated cells; dose and duration not given
Read-out: 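Antibody staining for doubly phosphorylated ERK divided by ERK-YFP signal, as plate z-scores, in insulin-treated and untreated cells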
Scale: replicate 1, z-score of dpERK with insulin and replicate 2, z-score of dpERK with insulin: higher = more active ERK per ERK-YFP after insulin; replicate 1, z-score of dpERK under basal conditions: higher = more basal active ERK per ERK-YFP; replicate 1, z-score of ERK-YFP with insulin: higher = more YFP-tagged ERK signal

gene | reagent no. | replicate 1, z-score of dpERK with insulin | replicate 2, z-score of dpERK with insulin | replicate 1, z-score of dpERK under basal conditions | replicate 1, z-score of ERK-YFP with insulin
CG13674 | 1 | 1.2 | 0.28 | -1.12 | 0.39
CG12522 | 1 | 0.49 | 0.43 | 2.45 | -0.46
CG15650 | 1 | 0.62 | 0.94 | -0.38 | -0.43
Adgf-B | 1 | -0.78 | -0.22 | -1.1 | 0.43
Sox100B | 1 | -0.14 | -1.37 | -1.71 | -1.28
Sox100B | 2 | -0.48 | 0.04 | 0.19 | 1.25
Dlip2 | 1 | 0.78 | -0.08 | -0.87 | 0.25
CG17572 | 1 | -0.21 | 1.16 | -0.94 | -0.24
Cisd2 | 1 | 0.97 | -1.5 | -0.14 | -0.94
mRpL16 | 1 | 0.57 | 0.06 | -0.21 | -0.09
TTLL12 | 1 | -0.06 | 0.44 | 0.25 | 0.56
CG2930 | 1 | -0.85 | 0.2 | -0.89 | -0.18
RhoGAP68F | 1 | -1.16 | 0.02 | -0.28 | 0.06
l(1)G0004 | 1 | -0.05 | -0.71 | -0.45 | -0.06
Pph13 | 1 | -0.65 | -0.46 | -0.77 | 1.02
Kaz-m1 | 1 | 0.35 | 0.32 | -0.44 | 0.33
CG15465 | 1 | 0.35 | 0.33 | -0.27 | 0.16
CheB93b | 1 | -0.27 | 0.05 | -0.15 | 0.23
CG8892 | 1 | -0.1 | 0.24 | -0.48 | 0.4
Ipo9 | 1 | -0.25 | 0.36 | 0.75 | 0.39
mRpS34 | 1 | 1.49 | 0.43 | -0.37 | 0.66
CG13737 | 1 | -0.16 | 0.21 | -0.58 | 0.28
Aprt | 1 | -0.11 | -1.73 | -0.25 | -0.45
ph-p | 1 | 1.01 | -0.43 | 0.45 | 0.13
PGRP-SC2 | 1 | 0.45 | 0.67 | 0.24 | 0
CG5707 | 1 | 0.22 | 0.56 | -0.11 | 0.28
CG33111 | 1 | 0.86 | -0.18 | 0.47 | 0.36
CG33111 | 2 | 1.2 | 0.08 | -0.06 | -0.07
Karl | 1 | 0.11 | -0.57 | -0.72 | 0.15
Tis11 | 1 | -2.61 | -4.16 | -2.34 | 2.47
Coq5 | 1 | 1.3 | 1.15 | 0.07 | 0.3
Coq5 | 2 | 0.93 | 0.92 | 0.66 | -0.22
PAN3 | 1 | 0.57 | 0.11 | -0.02 | -1.89
l(2)34Fd | 1 | 0.4 | 0.15 | 0.98 | 0.04
CAH2 | 1 | 0.62 | 0.54 | -0.07 | 0.35
sw + Sdic4 + Sdic3 + 2 more | 1 | 0.44 | 0.81 | 2.92 | -0.38
Phs | 1 | -1.29 | -1.1 | -0.24 | -1.71
dpr11 | 1 | 0.03 | 0.08 | -0.39 | 0.04
dpr11 | 2 | -0.23 | -0.18 | 0.97 | 0
dpr11 | 3 | 0.32 | 0.39 | -0.69 | -0.37
hoe2 | 1 | 0 | 0.94 | -0.02 | 0.95
CG13171 | 1 | 0.51 | -0.44 | -0.26 | 0.01
CG14708 | 1 | -0.5 | -0.01 | 0.69 | -0.63
CG2790 | 1 | -0.02 | -0.22 | 0.6 | 0.19
tgy | 1 | 0.21 | -0.39 | 0.74 | 0.05
CG18536 | 1 | 0.06 | 0.31 | -0.38 | 0.37
CG31787 | 1 | 0.51 | -0.46 | 0.39 | 0.63
sp3 | 1 | 0.47 | -0.39 | 0.6 | -0.06
y | 1 | 0.6 | -0.46 | -0.58 | -0.99
CG17574 | 1 | 0.31 | -0.11 | 1.26 | 0.05
CG9458 | 1 | 1.1 | 2.47 | 1.52 | -0.41
Cyp4d1 | 1 | -0.13 | 0.07 | -2.14 | 0.89
Cyp4d1 | 2 | -0.69 | 1.13 | -0.07 | 0.4
Pgm2a | 1 | -0.33 | -0.37 | 0.58 | 0.13
wech | 1 | -0.49 | -0.34 | -0.26 | -0.59
CG6409 | 1 | 0.07 | 0.49 | -0.07 | 0.76
CG6409 | 2 | -0.07 | 0.34 | -0.16 | 0.4
